Laboratory results reported in paper doi:10.1101/2024.02.13.579840.
No constants are given. Whether binding was seen depends on the method and setting. In cells and extracts the contact can be indirect. Some results given as binding are weak or reduced against the parent protein; the word gives no strength. For some of these results: Where a sequence is shown, tags or fusion partners need not be part of it.

Protein sequences, listed by entry. Tags and fused reporters are not part of them.
UniProt Q9UHY1: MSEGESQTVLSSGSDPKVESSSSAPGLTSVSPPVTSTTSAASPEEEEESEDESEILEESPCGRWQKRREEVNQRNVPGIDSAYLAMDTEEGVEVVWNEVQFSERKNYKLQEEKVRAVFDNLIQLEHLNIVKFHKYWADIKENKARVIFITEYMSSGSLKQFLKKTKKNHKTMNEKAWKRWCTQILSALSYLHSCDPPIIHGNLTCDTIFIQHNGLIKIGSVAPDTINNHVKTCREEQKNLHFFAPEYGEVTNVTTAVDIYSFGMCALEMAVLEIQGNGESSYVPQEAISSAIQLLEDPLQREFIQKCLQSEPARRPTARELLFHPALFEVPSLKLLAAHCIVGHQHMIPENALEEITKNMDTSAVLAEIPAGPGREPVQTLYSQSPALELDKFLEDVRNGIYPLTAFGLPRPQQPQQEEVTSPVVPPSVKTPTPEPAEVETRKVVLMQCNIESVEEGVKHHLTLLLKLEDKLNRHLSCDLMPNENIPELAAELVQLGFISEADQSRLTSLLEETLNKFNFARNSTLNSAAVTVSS
UniProt Q9H4A3: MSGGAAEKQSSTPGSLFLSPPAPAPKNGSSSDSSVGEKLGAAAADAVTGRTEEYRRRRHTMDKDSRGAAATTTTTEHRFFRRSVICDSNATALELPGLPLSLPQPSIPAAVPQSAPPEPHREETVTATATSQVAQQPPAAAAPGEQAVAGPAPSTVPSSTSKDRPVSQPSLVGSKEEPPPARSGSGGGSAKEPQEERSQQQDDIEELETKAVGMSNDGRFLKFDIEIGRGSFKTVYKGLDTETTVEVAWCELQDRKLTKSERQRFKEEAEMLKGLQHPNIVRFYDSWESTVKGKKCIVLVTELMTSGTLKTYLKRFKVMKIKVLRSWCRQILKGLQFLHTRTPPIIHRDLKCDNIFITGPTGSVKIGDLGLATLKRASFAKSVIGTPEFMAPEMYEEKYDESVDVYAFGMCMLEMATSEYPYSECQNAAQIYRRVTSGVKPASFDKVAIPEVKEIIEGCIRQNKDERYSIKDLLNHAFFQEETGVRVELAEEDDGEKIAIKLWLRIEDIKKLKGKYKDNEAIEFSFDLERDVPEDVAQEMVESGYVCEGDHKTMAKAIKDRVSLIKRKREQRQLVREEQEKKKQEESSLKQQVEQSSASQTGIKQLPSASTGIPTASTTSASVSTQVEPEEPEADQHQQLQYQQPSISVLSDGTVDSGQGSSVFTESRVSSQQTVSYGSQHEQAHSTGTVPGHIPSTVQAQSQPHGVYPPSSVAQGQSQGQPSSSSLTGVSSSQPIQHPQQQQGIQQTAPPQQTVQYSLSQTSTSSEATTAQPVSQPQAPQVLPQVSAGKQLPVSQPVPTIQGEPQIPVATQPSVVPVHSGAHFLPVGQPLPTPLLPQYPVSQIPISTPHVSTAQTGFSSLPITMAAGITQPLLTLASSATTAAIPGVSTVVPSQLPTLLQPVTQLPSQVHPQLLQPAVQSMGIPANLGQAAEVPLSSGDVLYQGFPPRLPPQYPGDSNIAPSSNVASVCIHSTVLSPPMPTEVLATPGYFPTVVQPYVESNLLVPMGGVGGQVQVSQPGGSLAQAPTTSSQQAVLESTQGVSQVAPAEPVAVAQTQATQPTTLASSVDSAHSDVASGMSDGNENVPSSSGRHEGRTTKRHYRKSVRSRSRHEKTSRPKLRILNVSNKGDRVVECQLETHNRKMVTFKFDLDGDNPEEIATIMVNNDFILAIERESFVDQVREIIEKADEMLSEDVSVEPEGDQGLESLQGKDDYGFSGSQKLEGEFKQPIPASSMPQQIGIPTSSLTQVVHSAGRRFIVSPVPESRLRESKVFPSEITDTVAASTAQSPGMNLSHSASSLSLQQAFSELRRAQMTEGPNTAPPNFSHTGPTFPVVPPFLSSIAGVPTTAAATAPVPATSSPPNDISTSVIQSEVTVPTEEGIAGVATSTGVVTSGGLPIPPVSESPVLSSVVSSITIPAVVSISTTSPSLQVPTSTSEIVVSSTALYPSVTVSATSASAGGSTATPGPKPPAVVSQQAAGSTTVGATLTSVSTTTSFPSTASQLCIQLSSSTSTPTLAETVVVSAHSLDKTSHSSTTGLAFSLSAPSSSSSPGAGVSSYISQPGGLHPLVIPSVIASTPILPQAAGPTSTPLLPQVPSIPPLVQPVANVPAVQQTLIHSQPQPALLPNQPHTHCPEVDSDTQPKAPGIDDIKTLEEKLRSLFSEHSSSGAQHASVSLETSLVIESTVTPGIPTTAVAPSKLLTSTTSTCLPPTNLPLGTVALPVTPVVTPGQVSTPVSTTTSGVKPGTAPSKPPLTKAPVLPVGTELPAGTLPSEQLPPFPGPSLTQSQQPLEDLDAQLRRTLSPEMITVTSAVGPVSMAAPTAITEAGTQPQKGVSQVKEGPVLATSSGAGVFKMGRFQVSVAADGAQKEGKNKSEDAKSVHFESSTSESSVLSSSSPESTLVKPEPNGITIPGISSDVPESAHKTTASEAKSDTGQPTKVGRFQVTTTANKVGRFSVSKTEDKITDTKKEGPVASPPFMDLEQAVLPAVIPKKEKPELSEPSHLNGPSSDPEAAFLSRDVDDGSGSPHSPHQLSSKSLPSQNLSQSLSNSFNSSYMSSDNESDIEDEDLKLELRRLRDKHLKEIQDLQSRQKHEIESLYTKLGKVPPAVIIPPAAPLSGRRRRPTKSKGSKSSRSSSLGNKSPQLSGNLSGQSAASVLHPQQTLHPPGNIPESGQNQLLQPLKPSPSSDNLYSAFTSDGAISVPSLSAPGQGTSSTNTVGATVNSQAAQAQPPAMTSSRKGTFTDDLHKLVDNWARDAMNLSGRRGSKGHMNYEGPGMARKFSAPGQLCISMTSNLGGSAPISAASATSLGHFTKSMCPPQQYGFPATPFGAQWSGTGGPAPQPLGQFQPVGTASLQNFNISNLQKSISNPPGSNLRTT

Tests used:
Assay in all cases: co-IP
[1] = biological target: T1, FLAG-tagged full-length (FL) TSC22D2 (human) (UniProt O75157)
T1 sequence: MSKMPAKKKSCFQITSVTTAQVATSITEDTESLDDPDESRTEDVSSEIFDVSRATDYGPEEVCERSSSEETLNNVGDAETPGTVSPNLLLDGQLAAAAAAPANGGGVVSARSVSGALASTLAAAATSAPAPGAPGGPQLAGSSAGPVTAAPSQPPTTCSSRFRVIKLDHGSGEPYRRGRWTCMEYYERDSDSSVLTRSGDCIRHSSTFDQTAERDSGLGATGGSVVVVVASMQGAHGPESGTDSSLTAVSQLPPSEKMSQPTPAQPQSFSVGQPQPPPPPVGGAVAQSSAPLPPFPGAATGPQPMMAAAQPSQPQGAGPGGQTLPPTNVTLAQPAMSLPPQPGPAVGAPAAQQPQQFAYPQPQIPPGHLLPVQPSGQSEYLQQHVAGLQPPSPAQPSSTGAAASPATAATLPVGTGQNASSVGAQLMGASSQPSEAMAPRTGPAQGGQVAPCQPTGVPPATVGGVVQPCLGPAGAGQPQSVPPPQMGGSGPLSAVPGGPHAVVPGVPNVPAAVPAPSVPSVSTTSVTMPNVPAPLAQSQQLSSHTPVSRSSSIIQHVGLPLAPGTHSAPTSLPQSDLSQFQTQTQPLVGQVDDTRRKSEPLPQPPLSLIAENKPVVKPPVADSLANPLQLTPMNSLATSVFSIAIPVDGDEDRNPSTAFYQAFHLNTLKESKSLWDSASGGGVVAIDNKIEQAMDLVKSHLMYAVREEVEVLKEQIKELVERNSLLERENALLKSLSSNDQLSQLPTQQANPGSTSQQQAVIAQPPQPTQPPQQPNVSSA

[2] = biological target: T2, FLAG-tagged TSC22D2-Cterm (258-780) (human) (UniProt O75157)
T2 sequence: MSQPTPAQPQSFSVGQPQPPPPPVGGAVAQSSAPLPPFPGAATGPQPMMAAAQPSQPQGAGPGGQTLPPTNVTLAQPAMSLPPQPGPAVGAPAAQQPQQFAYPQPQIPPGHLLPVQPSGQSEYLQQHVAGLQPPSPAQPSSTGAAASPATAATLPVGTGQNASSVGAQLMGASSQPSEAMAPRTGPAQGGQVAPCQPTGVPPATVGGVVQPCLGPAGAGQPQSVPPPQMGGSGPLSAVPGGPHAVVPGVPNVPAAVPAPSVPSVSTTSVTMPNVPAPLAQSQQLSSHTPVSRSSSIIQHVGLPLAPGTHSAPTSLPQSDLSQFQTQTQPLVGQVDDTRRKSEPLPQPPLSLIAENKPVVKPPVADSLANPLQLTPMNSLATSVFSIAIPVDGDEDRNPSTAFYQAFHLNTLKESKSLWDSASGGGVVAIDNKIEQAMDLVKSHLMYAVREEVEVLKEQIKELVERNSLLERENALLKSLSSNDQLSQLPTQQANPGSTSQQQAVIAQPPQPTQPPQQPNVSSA

[3] = biological target: T3, FLAG-tagged TSC22D2-Nterm (1-257) (human) (UniProt O75157)
T3 sequence: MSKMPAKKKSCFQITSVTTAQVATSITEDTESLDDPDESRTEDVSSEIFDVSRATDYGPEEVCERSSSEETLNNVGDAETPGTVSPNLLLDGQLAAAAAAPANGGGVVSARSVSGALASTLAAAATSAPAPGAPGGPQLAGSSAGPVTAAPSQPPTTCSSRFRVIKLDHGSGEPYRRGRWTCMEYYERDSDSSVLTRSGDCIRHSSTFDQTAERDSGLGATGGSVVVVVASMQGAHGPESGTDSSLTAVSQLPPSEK

[4] = biological target: FLAG-tagged full-length (FL) NRBP1 (human) (UniProt Q9UHY1)

Substance: endogenous WNK1 (HEK293T) (from UniProt Q9H4A3 1-2382)
- binding [1]: binds
- binding [2]: no binding
- binding [3]: binds
- binding [4]: binds
